Common to all, as to test: mass photometry
The target of test [1] is T1, E. coli aquaporin AqpZ reconstituted in peptidiscs (E. coli), P60844.
T1 chain: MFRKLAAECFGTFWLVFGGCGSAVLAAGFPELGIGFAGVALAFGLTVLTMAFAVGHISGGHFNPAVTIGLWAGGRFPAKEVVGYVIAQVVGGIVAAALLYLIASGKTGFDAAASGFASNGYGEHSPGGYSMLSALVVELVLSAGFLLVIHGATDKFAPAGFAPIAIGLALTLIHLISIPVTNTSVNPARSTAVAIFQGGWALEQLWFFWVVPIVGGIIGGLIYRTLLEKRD
Conditions: remark: other sources report otherwise.

Test [2] has as its target T2, E. coli Vitamin B12 ABC transporter BtuCD reconstituted in peptidiscs (E. coli) (UniProt P06609+P06611).
T2 sequence 1: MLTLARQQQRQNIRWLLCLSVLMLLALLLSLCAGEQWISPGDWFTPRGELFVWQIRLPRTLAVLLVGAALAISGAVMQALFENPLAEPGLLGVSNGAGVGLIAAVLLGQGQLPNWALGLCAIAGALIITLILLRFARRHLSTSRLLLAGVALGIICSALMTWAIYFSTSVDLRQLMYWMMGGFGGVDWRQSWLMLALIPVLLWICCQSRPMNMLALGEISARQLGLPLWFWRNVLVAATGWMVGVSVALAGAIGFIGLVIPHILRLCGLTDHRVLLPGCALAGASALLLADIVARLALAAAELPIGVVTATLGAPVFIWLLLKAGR
T2 sequence 2: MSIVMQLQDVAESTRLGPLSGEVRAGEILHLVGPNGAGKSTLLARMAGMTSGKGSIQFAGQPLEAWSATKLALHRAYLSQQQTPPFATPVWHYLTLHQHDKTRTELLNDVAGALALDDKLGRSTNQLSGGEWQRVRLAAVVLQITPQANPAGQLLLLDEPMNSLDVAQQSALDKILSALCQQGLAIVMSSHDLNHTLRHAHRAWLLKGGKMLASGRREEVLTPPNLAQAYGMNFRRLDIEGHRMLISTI

Test [3] addresses T2, E. coli Vitamin B12 ABC transporter BtuCD reconstituted in peptidiscs (E. coli). The source holds these as a separate data set.

Like-named read-outs stand apart in the source and are kept apart here. These are yes or no findings as the source states them, for the method shown. Some entries that bind do so weakly or less than the wild type.

B1: E. coli aquaporin AqpZ reconstituted in peptidiscs, P60844 1-231 (protein)
chain: MFRKLAAECFGTFWLVFGGCGSAVLAAGFPELGIGFAGVALAFGLTVLTMAFAVGHISGGHFNPAVTIGLWAGGRFPAKEVVGYVIAQVVGGIVAAALLYLIASGKTGFDAAASGFASNGYGEHSPGGYSMLSALVVELVLSAGFLLVIHGATDKFAPAGFAPIAIGLALTLIHLISIPVTNTSVNPARSTAVAIFQGGWALEQLWFFWVVPIVGGIIGGLIYRTLLEKRD
In the case of B1, in test [1], the binding entry was “no binding”.

B2: periplasmic B12 binding protein BtuF (protein, UniProt P37028 23-266)
chain: APRVITLSPANTELAFAAGITPVGVSSYSDYPPQAQKIEQVSTWQGMNLERIVALKPDLVIAWRGGNAERQVDQLASLGIKVMWVDATSIEQIANALRQLAPWSPQPDKAEQAAQSLLDQYAQLKAQYADKPKKRVFLQFGINPPFTSGKESIQNQVLEVCGGENIFKDSRVPWPQVSREQVLARSPQAIVITGGPDQIPKIKQYWGEQLKIPVIPLTSDWFERASPRIILAAQQLCNALSQVD
B2: the binding result in test [2] and in test [3] was “binds” throughout.
